Source: the supplement of paper PMC9233669
This sample is rich in variants without activity.

How the values were obtained:
biotinyl-Trp-oxazolone = assay: self-aminoacylation, catalytic enhancement (BWO) (fold over background); higher = more active; k-Seq, kA / k0A0; sequences stand for … in GGGAAUGGAUCCACAUCUACGAAUUC…UUCACUGCAGACUUGACGAAGCUG
In short: (§1)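 Catalytic enhancement equals the median kA over the uncatalyzed rate, the latter read from the low-activity peak of a bimodal Gaussian fit. Values of kA came from fitting each sequence's fraction reacted to a pseudo-first-order model, with 1000 bootstraps. Reacted RNA was captured with streptavidin and quantified by triplicate qPCR and Illumina sequencing after 90 minutes at room temperature with 2–1250 μM biotinyl-aminoacyl-oxazolone and 0.43 μM mutagenized RNA pools bearing a 21-nt variable region.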

biotinyl-Leu-oxazolone = assay: self-aminoacylation, catalytic enhancement (BLO) (fold over background); higher = more active; k-Seq, kA / k0A0; sequences stand for … in GGGAAUGGAUCCACAUCUACGAAUUC…UUCACUGCAGACUUGACGAAGCUG
In short: as §1

biotinyl-Val-oxazolone = assay: self-aminoacylation, catalytic enhancement (BVO) (fold over background); higher = more active; k-Seq, kA / k0A0; sequences stand for … in GGGAAUGGAUCCACAUCUACGAAUUC…UUCACUGCAGACUUGACGAAGCUG
In short: as §1

biotinyl-Ile-oxazolone = assay: self-aminoacylation, catalytic enhancement (BIO) (fold over background); higher = more active; k-Seq, kA / k0A0; sequences stand for … in GGGAAUGGAUCCACAUCUACGAAUUC…UUCACUGCAGACUUGACGAAGCUG
In short: as §1

biotinyl-Met-oxazolone = assay: self-aminoacylation, catalytic enhancement (BMO) (fold over background); higher = more active; k-Seq, kA / k0A0; sequences stand for … in GGGAAUGGAUCCACAUCUACGAAUUC…UUCACUGCAGACUUGACGAAGCUG
In short: as §1

biotinyl-Phe-oxazolone = assay: self-aminoacylation, catalytic enhancement (BFO) (fold over background); higher = more active; k-Seq, kA / k0A0; sequences stand for … in GGGAAUGGAUCCACAUCUACGAAUUC…UUCACUGCAGACUUGACGAAGCUG
In short: as §1

For “AUUACCCUGGUCAUCGUGUUA [Fam2.1 aminoacylation ribozyme variant]”, the self-aminoacylation (biotinyl-Trp-oxazolone) was 0.622, the self-aminoacylation (biotinyl-Leu-oxazolone) was 0.682 and the self-aminoacylation (biotinyl-Val-oxazolone) was 0.992. It also gave a self-aminoacylation (biotinyl-Ile-oxazolone) of 1.05, a self-aminoacylation (biotinyl-Met-oxazolone) of 0.959 and a self-aminoacylation (biotinyl-Phe-oxazolone) of 0.945.
“AUUACCCUGGUCAUCUAGUGA [Fam2.1 aminoacylation ribozyme variant]” showed a self-aminoacylation (biotinyl-Trp-oxazolone) of 11.3, a self-aminoacylation (biotinyl-Leu-oxazolone) of 9.15 and a self-aminoacylation (biotinyl-Val-oxazolone) of 4.83. It also gave a self-aminoacylation (biotinyl-Ile-oxazolone) of 4.51, a self-aminoacylation (biotinyl-Met-oxazolone) of 9.61 and a self-aminoacylation (biotinyl-Phe-oxazolone) of 42.9.
In the case of “AUUACCCUGGUCAUCUAGUUA [Fam2.1 aminoacylation ribozyme variant]”, the self-aminoacylation (biotinyl-Trp-oxazolone) is reported as 1.93, the self-aminoacylation (biotinyl-Leu-oxazolone) is reported as 0.762 and the self-aminoacylation (biotinyl-Val-oxazolone) is reported as 0.874. The self-aminoacylation (biotinyl-Ile-oxazolone) was 0.964, the self-aminoacylation (biotinyl-Met-oxazolone) was 0.914 and the self-aminoacylation (biotinyl-Phe-oxazolone) was 0.757.
“AUUACCCUGGUCAUGGAGUUA [Fam2.1 aminoacylation ribozyme variant]” gave a self-aminoacylation (biotinyl-Trp-oxazolone) of 0.695, a self-aminoacylation (biotinyl-Leu-oxazolone) of 0.899 and a self-aminoacylation (biotinyl-Val-oxazolone) of 1.13. It also gave a self-aminoacylation (biotinyl-Ile-oxazolone) of 1.04, a self-aminoacylation (biotinyl-Met-oxazolone) of 1.23 and a self-aminoacylation (biotinyl-Phe-oxazolone) of 0.664.
With “AUUACCCUGGUCAUUGAGUAA [Fam2.1 aminoacylation ribozyme variant]” the self-aminoacylation (biotinyl-Trp-oxazolone) was 2.02, the self-aminoacylation (biotinyl-Leu-oxazolone) was 1.29 and the self-aminoacylation (biotinyl-Val-oxazolone) was 0.941. The self-aminoacylation (biotinyl-Ile-oxazolone) was 1.2, the self-aminoacylation (biotinyl-Met-oxazolone) was 1.21 and the self-aminoacylation (biotinyl-Phe-oxazolone) was 1.16.
Sequence “AUUACCCUGGUCCUCGAUUGA [Fam2.1 aminoacylation ribozyme variant]” has a self-aminoacylation (biotinyl-Trp-oxazolone) of 0.403, a self-aminoacylation (biotinyl-Leu-oxazolone) of 0.909 and a self-aminoacylation (biotinyl-Val-oxazolone) of 1.05. It also gave a self-aminoacylation (biotinyl-Ile-oxazolone) of 0.762, a self-aminoacylation (biotinyl-Met-oxazolone) of 0.64 and a self-aminoacylation (biotinyl-Phe-oxazolone) of 0.457.
With “AUUACCCUGGUCGUCGAGUGA [Fam2.1 aminoacylation ribozyme variant]” the self-aminoacylation (biotinyl-Trp-oxazolone) was 1.28, the self-aminoacylation (biotinyl-Leu-oxazolone) was 1.17 and the self-aminoacylation (biotinyl-Val-oxazolone) was 1.13. It also gave a self-aminoacylation (biotinyl-Ile-oxazolone) of 1.06, a self-aminoacylation (biotinyl-Met-oxazolone) of 1.21 and a self-aminoacylation (biotinyl-Phe-oxazolone) of 1.68.
“AUUACCCUGGUCGUCUAGUGA [Fam2.1 aminoacylation ribozyme variant]” gave a self-aminoacylation (biotinyl-Trp-oxazolone) of 0.905, a self-aminoacylation (biotinyl-Leu-oxazolone) of 1.53 and a self-aminoacylation (biotinyl-Val-oxazolone) of 1.04. For the same sequence, the self-aminoacylation (biotinyl-Ile-oxazolone) was 1.15, the self-aminoacylation (biotinyl-Met-oxazolone) was 1.37 and the self-aminoacylation (biotinyl-Phe-oxazolone) was 2.09.
“AUUACCCUGGUUAUCGAGUGG [Fam2.1 aminoacylation ribozyme variant]” showed a self-aminoacylation (biotinyl-Trp-oxazolone) of 1.49, a self-aminoacylation (biotinyl-Leu-oxazolone) of 1.94 and a self-aminoacylation (biotinyl-Val-oxazolone) of 1.44. The self-aminoacylation (biotinyl-Ile-oxazolone) was 1.03, the self-aminoacylation (biotinyl-Met-oxazolone) was 1.57 and the self-aminoacylation (biotinyl-Phe-oxazolone) was 1.61.
“AUUACCCUGGUUAUCGAUUGA [Fam2.1 aminoacylation ribozyme variant]” gave a self-aminoacylation (biotinyl-Trp-oxazolone) of 1.03, a self-aminoacylation (biotinyl-Leu-oxazolone) of 0.672 and a self-aminoacylation (biotinyl-Val-oxazolone) of 0.677. The self-aminoacylation (biotinyl-Ile-oxazolone) was 0.645, the self-aminoacylation (biotinyl-Met-oxazolone) was 0.633 and the self-aminoacylation (biotinyl-Phe-oxazolone) was 0.733.
Work on “AUUACCCUGUUCAUCGACUGA [Fam2.1 aminoacylation ribozyme variant]” yielded a self-aminoacylation (biotinyl-Trp-oxazolone) of 0.87, a self-aminoacylation (biotinyl-Leu-oxazolone) of 1.11 and a self-aminoacylation (biotinyl-Val-oxazolone) of 1.26. It also gave a self-aminoacylation (biotinyl-Ile-oxazolone) of 1.17, a self-aminoacylation (biotinyl-Met-oxazolone) of 1.3 and a self-aminoacylation (biotinyl-Phe-oxazolone) of 0.787.
With “AUUACCCUGUUCAUCGAGAGA [Fam2.1 aminoacylation ribozyme variant]” the self-aminoacylation (biotinyl-Trp-oxazolone) was 0.607, the self-aminoacylation (biotinyl-Leu-oxazolone) was 0.99 and the self-aminoacylation (biotinyl-Val-oxazolone) was 1.23. The self-aminoacylation (biotinyl-Ile-oxazolone) was 1.28, the self-aminoacylation (biotinyl-Met-oxazolone) was 1.08 and the self-aminoacylation (biotinyl-Phe-oxazolone) was 1.07.
“AUUACCCUGUUCAUCGAGUGA [Fam2.1 aminoacylation ribozyme variant]” gave a self-aminoacylation (biotinyl-Trp-oxazolone) of 7.34, a self-aminoacylation (biotinyl-Leu-oxazolone) of 5.44 and a self-aminoacylation (biotinyl-Val-oxazolone) of 3.22. For the same sequence, the self-aminoacylation (biotinyl-Ile-oxazolone) was 2.97, the self-aminoacylation (biotinyl-Met-oxazolone) was 5.57 and the self-aminoacylation (biotinyl-Phe-oxazolone) was 16.6.
Sequence “AUUACCCUUAUCAUCGAGUGA [Fam2.1 aminoacylation ribozyme variant]” has a self-aminoacylation (biotinyl-Trp-oxazolone) of 16.7, a self-aminoacylation (biotinyl-Leu-oxazolone) of 13.2 and a self-aminoacylation (biotinyl-Val-oxazolone) of 6.51. The self-aminoacylation (biotinyl-Ile-oxazolone) was 5.68, the self-aminoacylation (biotinyl-Met-oxazolone) was 14.1 and the self-aminoacylation (biotinyl-Phe-oxazolone) was 60.8.
With “AUUACCCUUGUCAUCGAGAGA [Fam2.1 aminoacylation ribozyme variant]” the self-aminoacylation (biotinyl-Trp-oxazolone) was 0.397, the self-aminoacylation (biotinyl-Leu-oxazolone) was 0.92 and the self-aminoacylation (biotinyl-Val-oxazolone) was 0.778. It also gave a self-aminoacylation (biotinyl-Ile-oxazolone) of 0.893, a self-aminoacylation (biotinyl-Met-oxazolone) of 1.03 and a self-aminoacylation (biotinyl-Phe-oxazolone) of 0.771.
“AUUACCGUGGUCAUCGAGGGA [Fam2.1 aminoacylation ribozyme variant]” was tested, and the self-aminoacylation (biotinyl-Trp-oxazolone) was 1.65, the self-aminoacylation (biotinyl-Leu-oxazolone) was 1.73 and the self-aminoacylation (biotinyl-Val-oxazolone) was 1.59. It also gave a self-aminoacylation (biotinyl-Ile-oxazolone) of 1.13, a self-aminoacylation (biotinyl-Met-oxazolone) of 1.54 and a self-aminoacylation (biotinyl-Phe-oxazolone) of 0.86.
“AUUACCUUGGUCAUAGAGUGA [Fam2.1 aminoacylation ribozyme variant]” was tested, and the self-aminoacylation (biotinyl-Trp-oxazolone) was 9.04, the self-aminoacylation (biotinyl-Leu-oxazolone) was 7.24 and the self-aminoacylation (biotinyl-Val-oxazolone) was 3.69. It also gave a self-aminoacylation (biotinyl-Ile-oxazolone) of 3.58, a self-aminoacylation (biotinyl-Met-oxazolone) of 6.82 and a self-aminoacylation (biotinyl-Phe-oxazolone) of 25.4.
“AUUACCUUGGUCAUCGAGUGC [Fam2.1 aminoacylation ribozyme variant]” gave a self-aminoacylation (biotinyl-Trp-oxazolone) of 0.512, a self-aminoacylation (biotinyl-Leu-oxazolone) of 1.14 and a self-aminoacylation (biotinyl-Val-oxazolone) of 0.99. The self-aminoacylation (biotinyl-Ile-oxazolone) was 0.989, the self-aminoacylation (biotinyl-Met-oxazolone) was 1.33 and the self-aminoacylation (biotinyl-Phe-oxazolone) was 1.08.
In the case of “AUUACGCUGGUCAUCCAGUGA [Fam2.1 aminoacylation ribozyme variant]”, the self-aminoacylation (biotinyl-Trp-oxazolone) is reported as 4.31, the self-aminoacylation (biotinyl-Leu-oxazolone) is reported as 3.99 and the self-aminoacylation (biotinyl-Val-oxazolone) is reported as 1.96. It also gave a self-aminoacylation (biotinyl-Ile-oxazolone) of 2.27, a self-aminoacylation (biotinyl-Met-oxazolone) of 3.63 and a self-aminoacylation (biotinyl-Phe-oxazolone) of 12.8.
With “AUUACGCUGGUCAUCGAAUGA [Fam2.1 aminoacylation ribozyme variant]” the self-aminoacylation (biotinyl-Trp-oxazolone) was 1.65, the self-aminoacylation (biotinyl-Leu-oxazolone) was 1.81 and the self-aminoacylation (biotinyl-Val-oxazolone) was 1.89. It also gave a self-aminoacylation (biotinyl-Ile-oxazolone) of 1.96, a self-aminoacylation (biotinyl-Met-oxazolone) of 1.92 and a self-aminoacylation (biotinyl-Phe-oxazolone) of 1.24.
Sequence “AUUACUCUGGUCAUCGAGUUA [Fam2.1 aminoacylation ribozyme variant]” has a self-aminoacylation (biotinyl-Trp-oxazolone) of 0.631, a self-aminoacylation (biotinyl-Leu-oxazolone) of 1.34 and a self-aminoacylation (biotinyl-Val-oxazolone) of 1.13. It also gave a self-aminoacylation (biotinyl-Ile-oxazolone) of 1.25, a self-aminoacylation (biotinyl-Met-oxazolone) of 1.07 and a self-aminoacylation (biotinyl-Phe-oxazolone) of 1.02.
Sequence “AUUACUCUGGUCAUCUAGUGA [Fam2.1 aminoacylation ribozyme variant]” has a self-aminoacylation (biotinyl-Trp-oxazolone) of 11.4, a self-aminoacylation (biotinyl-Leu-oxazolone) of 9.74 and a self-aminoacylation (biotinyl-Val-oxazolone) of 4.34. For the same sequence, the self-aminoacylation (biotinyl-Ile-oxazolone) was 4.55, the self-aminoacylation (biotinyl-Met-oxazolone) was 9.64 and the self-aminoacylation (biotinyl-Phe-oxazolone) was 42.8.
Work on “AUUAGCCUGGACAUCGAGUGA [Fam2.1 aminoacylation ribozyme variant]” yielded a self-aminoacylation (biotinyl-Trp-oxazolone) of 8.52, a self-aminoacylation (biotinyl-Leu-oxazolone) of 9.56 and a self-aminoacylation (biotinyl-Val-oxazolone) of 3.53. The self-aminoacylation (biotinyl-Ile-oxazolone) was 3.91, the self-aminoacylation (biotinyl-Met-oxazolone) was 8.78 and the self-aminoacylation (biotinyl-Phe-oxazolone) was 45.3.
Sequence “AUUAUCCUGGACAUCGAGUGA [Fam2.1 aminoacylation ribozyme variant]” has a self-aminoacylation (biotinyl-Trp-oxazolone) of 8.19, a self-aminoacylation (biotinyl-Leu-oxazolone) of 6.24 and a self-aminoacylation (biotinyl-Val-oxazolone) of 3.06. For the same sequence, the self-aminoacylation (biotinyl-Ile-oxazolone) was 2.88, the self-aminoacylation (biotinyl-Met-oxazolone) was 6.78 and the self-aminoacylation (biotinyl-Phe-oxazolone) was 34.7.
“AUUCAACUAGGUCAUCGAGUG [Fam2.2 aminoacylation ribozyme variant]” showed a self-aminoacylation (biotinyl-Trp-oxazolone) of 1.84, a self-aminoacylation (biotinyl-Leu-oxazolone) of 3.13 and a self-aminoacylation (biotinyl-Val-oxazolone) of 1.45. For the same sequence, the self-aminoacylation (biotinyl-Ile-oxazolone) was 1.55, the self-aminoacylation (biotinyl-Met-oxazolone) was 2.2 and the self-aminoacylation (biotinyl-Phe-oxazolone) was 2.85.
